Source: PubChem BioAssay AID1347426 (Functional Genomics Laboratory (NCATS/FGL), 2020)
Among all 31,000 sequences or so, about 1,400 (4.5%) were called active.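 The calls were made as follows: active = median seed-adjusted z-score above 1 or below -1; inactive = the rest.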 The list shows a part of the results.

Test: Novel Modifiers of Survival Motor Neuron (SMN) Protein: Gene Identification via Genome-wide siRNA Screen;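 also: luminescence tracks full-length SMN protein made from the SMN2 reporter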
Details: HEK293T SMN2-luciferase reporter, siRNA knockdown, 72 h; actives lie on both sides
How it was run: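 HEK293T cells stably carrying an SMN2 promoter/splicing cassette–luciferase reporter were reverse-transfected with 1 pmol siRNA per well (druggable-genome library, 3 siRNAs per gene) and grown 72 h at 37 °C. Luminescence, normalized to negative-control siRNA and log10-transformed, was scored as MAD.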

Row | Sequence | median seed-adjusted z-score
1 | GAGCAAGACUUCUACGUGATT against SERPINA5 | active: -1.01
2 | GAACUACAGAAGACGAUAUTT against MDM4 | inactive: 0.0554
3 | GGCUAGUGAUAUACUAUAUTT against RPS6KA6 | inactive: -0.0821
4 | GGAUUUCCAGGGAUAUUUATT against CDKN2B | inactive: 0.0154
5 | CAGUAUCUCCUGCAUCAAATT against DDX24 | inactive: 0.246
6 | GGCCGAGUCUUGGAUUAGATT against MUC4 | inactive: 0.128
7 | GCGCUGUGCAAGACAGUCATT against OPRL1 | inactive: -0.9
8 | CGACACCGGAUAAACCAAATT against HES1 | inactive: -0.262
9 | GCCGUUUAAUACCCGAUGATT against RNF125 | inactive: 0.204
10 | AGGGAACAAGUUUACCAAATT against GTF2IRD1 | inactive: -0.282
11 | GCAGACUCUCGACAUCCGATT against MAFK | active: 1.73
12 | CGUGGUCACUGUCUCUGAATT against RFX1 | inactive: 0.818
13 | GAAUAUGCCUACGUGCUAATT against METTL1 | inactive: 0.0494
14 | AAAUAGUAAGAGAUGUUGUTT against SPSB2 | inactive: -0.741
15 | GGACAGUAAUUUUGAUAGUTT against ADAM2 | inactive: -0.116
16 | GCUAUAUGCUGGAGACAAATT against MPP4 | inactive: 0.13
17 | GCUCCGAGGAGAAUGCAAATT against SLC22A18AS | inactive: 0.0382
18 | GCUUCAAGAUGUACAUGCATT against IFIT5 | inactive: 0
19 | GAAGUAUGAUGACUCCUUUTT against MAPK12 | inactive: 0.0649
20 | CAUUGAGGGCCGAAAAGAATT against SGCA | inactive: 0.144
21 | GCCUCAAUGUCGUGGAGAATT against FRAG1 | inactive: -0.554
22 | CCACGAUGAAGGAACGAGATT against PDE4A | inactive: -0.147

Row | Sequence | median seed-adjusted z-score
23 | GAAGAUAUCUGACUCAAAATT against GPR156 | inactive: 0
24 | GGCUUGGUGUUGCUAGCUUTT against RNF26 | inactive: 0.359
25 | AAAGCUUUCUGGUUAGAUUTT against TUBA1B | inactive: 0.0888
26 | CCGCAGAUGCAAAAGCUUUTT against GSTA3 | inactive: 0.334
27 | GAAUACCUGAAGUUCGAUATT against NDUFA10 | inactive: -0.392
28 | GGAAUACAUCAGAAUGGUATT against ITCH | inactive: 0.199
29 | CCGCUCGCUUAGGAACUUATT against CHPT1 | inactive: 0.0678
30 | AUAUGAACGGAAUAAAUAATT against UBE2V2 | inactive: 0.556
31 | GAAUGAUAUUGUCCAUCGATT against CDKL5 | inactive: -0.256
32 | GGCUUCAACUACAACAGCATT against FBN3 | inactive: 0.264
33 | GACUUUACAUAUAAGAGCATT against DUSP19 | inactive: 0.343
34 | AGAGGAACCUGGCCGUGAATT against D2HGDH | inactive: -0.637
35 | GCAUUAGCAUGGACCGGUATT against CCR6 | inactive: 0.103
36 | CCACCUUGCAGAAAACCGATT against ITPR3 | active: -1.28
37 | CCAUGAGCAAGAACGAUUATT against ALPK1 | inactive: -0.0149
38 | ACCUCUCACUUUGCUGUGATT against FCRLB | inactive: -0.00684
39 | CAGACAGAAGAAUAUGUAATT against LSM6 | inactive: -0.0501
40 | ACCACCAAAUGAAGAAUAATT against AKR7A3 | inactive: 0.455
41 | CCAACUCCAGGUUACCCAATT against NCOR1 | inactive: 0.0767
42 | CAGAGAUUGAGGAAGCUAATT against PKD2 | inactive: 0.219
43 | CGAGGAAUACAACACCAAUTT against GAK | inactive: 0.488
44 | ACACGACGGUGUUUCCCUUTT against CYP11B1 | inactive: -0.199

Quoted from the listing.
CCAUGAGCAAGAACGAUUATT against ALPK1 – median seed-adjusted z-score: inactive: -0.0149
GAAUGAUAUUGUCCAUCGATT against CDKL5 – median seed-adjusted z-score: inactive: -0.256
CGAGGAAUACAACACCAAUTT against GAK – median seed-adjusted z-score: inactive: 0.488
ACACGACGGUGUUUCCCUUTT against CYP11B1 – median seed-adjusted z-score: inactive: -0.199
CCGCAGAUGCAAAAGCUUUTT against GSTA3 – median seed-adjusted z-score: inactive: 0.334
CCGCUCGCUUAGGAACUUATT against CHPT1 – median seed-adjusted z-score: inactive: 0.0678

The results go on:

Row | Sequence | median seed-adjusted z-score
45 | ACCCGCAAGAGGUUCUUUATT against SARM1 | inactive: 0.343
46 | CCUUUGACCAGUCCACUUATT against PCDHAC2 | inactive: -0.107
47 | UCCUCGUCCUGGUCAACUATT against SERPINA6 | inactive: 0.615
48 | GAUCGGAAGUGCCUACAAATT against ADAM23 | inactive: -0.0279
49 | UGAGGACCAAUGACCGGAATT against MGAT1 | inactive: 0.138
50 | GGGUGUCAGUGUUGCAGAATT against DDEFL1 | inactive: 0.293
51 | GCAAAGAUAAGGAACCCGATT against PAFAH1B3 | inactive: -0.381
52 | CUCUUCAUUUUUCGCAUUATT against GJB2 | inactive: -0.408
53 | GCUCUUUACGGCUGACAAUTT against IHH | inactive: 0.0642
54 | GAAGAGCGGCAACAAGAUATT against MAST3 | inactive: -0.642
55 | UGAUCGACCUAGACGCAGATT against PCDHA9 | inactive: -0.295
56 | GCAGAAAUCCAACUUAGAGTT against CSHL1 | inactive: -0.54
57 | GUGUGAGAAUUACAGUGAATT against ADAMTSL3 | inactive: -0.0419
58 | GCACUUAACGUAAUCACGATT against CCNH | inactive: -0.659
59 | GGCUUUACGUGGAAGUCAATT against HKR1 | inactive: -0.358
60 | GGACUCAAUGAAUUCAAUATT against NEK9 | inactive: 0.0698
61 | GGUUGGCAUUGACAACAAATT against TSC22D4 | inactive: -0.508
62 | GGAACCUCCUGACCAACAATT against FLRT2 | inactive: -0.00573
63 | GGUUAAAAUAUACUCUAUATT against HPCAL4 | inactive: 0.282
64 | AAACAGGAGGUGAUCGAUATT against IKBKG | inactive: -0.615
65 | GCAUCGCAGAUGAGGCUUUTT against LRFN2 | inactive: 0
66 | CCGGAACAUUUAUCCUAUUTT against SMURF2 | inactive: 0.351

Row | Sequence | median seed-adjusted z-score
67 | GUAUUGAAACAUAAACGUATT against ZNF148 | inactive: 0.307
68 | GAGCUUCACGCAGAACUAUTT against ZNF496 | inactive: -0.971
69 | CCAUCAUUAUAUUCCUCAUTT against MAS1 | inactive: -0.0551
70 | GGCUCGUAUACAUCCAUUUTT against TROVE2 | inactive: 0.399
71 | GGAUCGAACAGAUGGAGGATT against NISCH | inactive: -0.0757
72 | CUCUCUAACUAAUCGAUCATT against PDE3B | inactive: -0.0475
73 | CACAACAUCUUGUAAGACUTT against GNG13 | inactive: -0.516
74 | GGAUGAUUGGAGGACCUAUTT against ALDH7A1 | inactive: -0.406
75 | CGAGUGCUCCAGUUUAAGATT against GALK2 | inactive: 0
76 | GCCUUCCAUCAGUCGGAUATT against G6PD | inactive: 0.593
77 | CAUAAUAACCGUUACCAAATT against CSF1R | inactive: 0.38
78 | GGAUCAAUGAGUUCUCCAUTT against FMOD | active: -1.32
79 | GACUUCCGCAGAAAAGUAATT against PTPRN2 | inactive: -0.104
80 | GUGAGAAACUGGAUAAGAATT against ATF4 | inactive: 0
81 | GGCUGAAAGUCGACAAGGATT against PANK4 | inactive: 0.00068
82 | GGGCAUGGGUUUUAAUCGATT against PYGO1 | active: -1.23
83 | GGUGAAGAGAGGUUUUGAATT against 7-Sep | inactive: -0.00715
84 | GGGCUUUUCCGGAACCUGATT against TRIM46 | inactive: 0.034
85 | GGCUAUGAUUCAGUGCAAATT against ATP6V1H | inactive: 0.146
86 | GCAACGCAAGGGUGAGAAATT against SLC25A44 | inactive: -0.0685
87 | CCAAAGCCCUUCCAAGACATT against ZBTB7C | inactive: 0.447
88 | CUAUGGUCCUAGUAGGAAATT against KRAS | inactive: -0.0469

Row | Sequence | median seed-adjusted z-score
89 | CUAUCACCAUGGUUACGAATT against ARHGAP26 | inactive: 0.34
90 | UGGUUUCAAGGAACCGAAATT against DBNL | inactive: 0.398
91 | CCUUCUUAAGAGUACCUGATT against SLC2A4 | inactive: 0.0588
92 | AAAUGGACCCUUUUCAUUATT against FXYD6 | inactive: -0.214
93 | GCACAGAGGCCGACAAGAATT against THOP1 | inactive: 0.643
94 | GGCAUACUAAAUAAGCUUATT against EIF4G2 | inactive: -0.386
95 | GGCCUUAGAUGAGUCCCUATT against PABPN1 | inactive: -0.757
96 | GGAGCAAGGUGAAAUACAUTT against NTHL1 | inactive: 0.364
97 | GGAGGAGCAUCUCACAAUATT against XYLB | inactive: -0.414
98 | CUGACAGUGUGGAUCGAUATT against COL12A1 | inactive: 0.00422
99 | GCAGAAACCCAGAUCGAGATT against PLAT | inactive: 0.246
100 | GCUUACUCGGGUGCUCUUATT against ZDHHC16 | inactive: 0.0194
101 | AGAGGAAGUUGAAUUAUUATT against BRD3 | inactive: 0.633
102 | GGCACGAGAUGAAACGAAATT against STX3 | inactive: 0.686
103 | CCAUGGUGACUUACCCUAUTT against ZC3H10 | inactive: -0.79
104 | UCUUUUGCCUCCUUAAAUATT against PRPH | inactive: 0
105 | GAAGGUUCCUGAUGCUAUATT against PHF12 | inactive: 0.784
106 | CGAUACCGGGAAGACCUGATT against PSMB6 | inactive: -0.579
107 | CUGCAUCAGCGGUCCUCUATT against HAS1 | inactive: -0.416
